Test results as given in paper PMC6340896.
Results are given in words; binding and its absence hold for the method and conditions named. Binding can be weak; no strength is given.

By UniProt entry, the sequences of proteins in these tests, tags left out. Where a name states a change or a piece, a line headed by the entry shows the natural chain unless it says otherwise.
UniProt P05737: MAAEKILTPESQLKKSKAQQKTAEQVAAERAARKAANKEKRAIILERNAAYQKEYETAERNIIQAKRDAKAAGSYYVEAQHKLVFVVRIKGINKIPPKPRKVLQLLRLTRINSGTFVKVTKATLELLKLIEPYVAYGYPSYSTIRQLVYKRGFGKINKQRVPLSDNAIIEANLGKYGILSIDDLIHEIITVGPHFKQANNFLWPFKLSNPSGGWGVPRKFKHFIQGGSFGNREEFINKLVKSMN

Assays:
[1] = target: ribosomal protein L4 (S. cerevisiae (endogenous in BY4741)); assay: cryo-EM structure; Rpf1-TAP pre-60S particle purified from yeast, Titan Krios 300 kV, 3.65 Å overall
[2] = target: ribosomal protein L7 (S. cerevisiae (endogenous in BY4741)) (UniProt P05737); assay: as above

| binding [1] | binding [2] | Binder |
| --- | --- | --- |
| binds | binds | Rrp1 (protein, UniProt P35178 1-278) METSNFVKQLSSNNRKTRVNALEALKKYLTAKQFKENKQIEFNKLWKGLYYAMWFSDRPRPQQRLANELGELHGLYFDPKDNSTADELTTNDKAFIKFSRGFWKVMCFEWFNIDRYRLDKYLLLIRRVLFSQLKYLQSRNWDKKLVDEYIKKVLRWLPLSGSPKVYTGIPIHIVDILLDEWERLLKDGDEDDEDEENKEEEMRKIAESAKKTPLADVIAIFQDIVADYNNSKVLREKIKEDLFSDTRLVSWDILEGETQHNDSSNESEEEEEEEWKGF |
| binds | – | Mak16 (protein, UniProt P10962 1-306) MSDEIVWQVINQSFCSHRIKAPNGQNFCRNEYNVTGLCTRQSCPLANSKYATVKCDNGKLYLYMKTPERAHTPAKLWERIKLSKNYTKALQQIDEHLLHWSKFFRHKCKQRFTKLTQVMITERRLALREEERHYVGVAPKVKRREQNRERKALVAAKIEKAIEKELMDRLKSGAYGDKPLNVDEKVWKKIMGQMEEENSQDEEEDWDEEEESDDGEVEYVADDGEGEYVDVDDLEKWLADSDREASSASESESDSESESDSDSDEENKNSAKRRKKGTSAKTKRPKVEIEYEEEHEVQNAEQEVAQ |
